Test results from PubChem BioAssay AID1347075 (National Center for Advancing Translational Sciences (NCATS), 2019).
Where “and” joins values, the source holds several entries; their conditions need not be identical. Equal values may be shown once. About 5,500 (1.4%) of roughly 400,000 compounds were called active. Inconclusive results, whose numbers are uncertain, are shown with a selection of clear calls. Calls follow the shape of the dose curve; as a rule, active = well fitted cell-killing curve with a large enough effect; inconclusive = small, poorly fitted or top-dose-only effect, or effect the other way; inactive = flat fitted curve, though single readings scatter. Potencies of inconclusive entries are doubtful fits and often do not repeat.

Test: qHTS assay for MDR1-selective chemotherapeutics: Primary screen using the parental adenocarcinoma cell KB-3-1; also: nearly all actives have a fitted effect of over 60% in size
Conditions: KB-3-1 viability, CellTiter-Glo ATP luminescence, 72 h; activity change, negative = cytotoxic: at 46.1 µM (top of the series)
Summary of the method: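 Using CellTiter-Glo luminescence, growth of non-resistant KB-3-1 adenocarcinoma cells is assessed 72 h after pin-tool compound addition at 37 °C. Normalized responses across the concentration series yield fitted curves.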
% is scaled to controls: 0 for no effect and ±100 for the full control effect; potency is read from the fitted curve at half-maximal effect.

| SMILES | activity change, negative = cytotoxic | Potency |
| --- | --- | --- |
| CN1CCN(C2=C(Cl)C(=O)N(CCc3ccccc3)C2=O)CC1 | inactive: -3.27% | – |
| Oc1ccc(/C=N/Nc2ccc3ccccc3c2)c(O)c1 | inactive: -9.34% | – |
| CNC(=O)c1ccc(CNC(=O)OCc2ccccc2)cc1 | – | inconclusive: 32.6 µM [cytotoxic, single point] |
| Cc1ccc(S(=O)(=O)N2CCN(c3nn(C)c(=O)n(C)c3=O)CC2)cc1C | – | inconclusive: 2.59 µM [cytotoxic, full curve, poor fit] |
| CC(C)(C)c1ccc(C(=O)Nc2ccc(Oc3cccnc3)nc2)cc1 | – | inconclusive: 8.2 µM [cytotoxic, partial curve] |
| Cc1cc(OCc2cc(C(=O)N(Cc3nccn3C)C(C)C)no2)cc(C)c1Cl | – | inconclusive: 25.9 µM [cytotoxic, single point] |
| Cc1cccc(-n2c(N)cc(=O)nc2SCC(=O)Nc2ccc(F)cc2)c1C | – | inconclusive: 2.31 µM [rising, partial curve, poor fit] |
| Cc1[nH]c(=S)c(C#N)c(C)c1Cc1ccccc1 | inactive: -0.214% | – |
| COc1cc(F)ccc1CN1CCC(C(=O)Nc2ccc(Oc3ccccc3)nc2)CC1 | – | inconclusive: 20.6 µM [cytotoxic, partial curve, poor fit] |
| CCc1ccc(NC(=O)CSc2ccc3nc(-c4ccc(OC)cc4)cn3n2)cc1 | inactive: 0.676% | – |
| COc1ccc(NC(=O)c2ccc(-c3ccc(-c4noc(C)n4)cc3C)cc2)cc1N1CCN(C)CC1 | – | inconclusive: 29.1 µM [cytotoxic, single point] and inconclusive: 18.4 µM [cytotoxic, single point] |
| O=c1c(Br)c(Br)cnn1-c1ccccc1 | – | inconclusive: 16.4 µM [rising, single point] |
| COc1ccc(CCNC(=O)CC2Nc3ccccc3NC2=O)cc1OC (stereo not drawn) | – | inconclusive: 25.9 µM [cytotoxic, single point] |
| CN1CC2(Cc3cc([N+](=O)[O-])ccc31)C(=O)OC(C)(C)OC2=O | – | inconclusive: 14.6 µM [rising, partial curve, poor fit] |
| CCOC(=O)[C@]12CCCC=C1N(Cc1ccc(Cl)cc1Cl)C(=O)[C@H](CC(=O)NCc1ccc(OC)c(OC)c1)C2 | – | inconclusive: 29.1 µM [cytotoxic, single point] |
| CCOCCCNC(=O)C1CCN(S(=O)(=O)c2c(C)noc2/C=C\c2ccc(OC)cc2)CC1 | inactive: -2.06% | – |
| COc1ccc(S(=O)(=O)N2CCCC2CNC(=O)C(=O)NCCc2ccccc2)cc1 (stereo not drawn) | – | active: 8.2 µM |
| S=C(NN=C(c1ccccc1)c1ccccn1)N(Cc1ccccn1)Cc1ccccn1 | – | inconclusive: 1.64 µM [cytotoxic, full curve, poor fit] |

Two successive entries out of the list so far, for reference:

| SMILES | activity change, negative = cytotoxic | Potency |
| --- | --- | --- |
| CCc1ccc(NC(=O)CSc2ccc3nc(-c4ccc(OC)cc4)cn3n2)cc1 | inactive: 0.676% | – |
| COc1ccc(NC(=O)c2ccc(-c3ccc(-c4noc(C)n4)cc3C)cc2)cc1N1CCN(C)CC1 | – | inconclusive: 29.1 µM [cytotoxic, single point] and inconclusive: 18.4 µM [cytotoxic, single point] |
